Results from US20040142357A1.
These are yes or no findings as the source states them, for the method shown. For some assays here: In cells and extracts the contact can be indirect. Some results given as binding are weak or reduced against the parent protein; the word gives no strength. For some assays here: Sequences can lack the tags named with a protein.

Chains of the proteins cited; added tags and fusions are not shown. Lines headed by an entry give the natural chain unless they say otherwise; changes in a name come on top.
UniProt P54274: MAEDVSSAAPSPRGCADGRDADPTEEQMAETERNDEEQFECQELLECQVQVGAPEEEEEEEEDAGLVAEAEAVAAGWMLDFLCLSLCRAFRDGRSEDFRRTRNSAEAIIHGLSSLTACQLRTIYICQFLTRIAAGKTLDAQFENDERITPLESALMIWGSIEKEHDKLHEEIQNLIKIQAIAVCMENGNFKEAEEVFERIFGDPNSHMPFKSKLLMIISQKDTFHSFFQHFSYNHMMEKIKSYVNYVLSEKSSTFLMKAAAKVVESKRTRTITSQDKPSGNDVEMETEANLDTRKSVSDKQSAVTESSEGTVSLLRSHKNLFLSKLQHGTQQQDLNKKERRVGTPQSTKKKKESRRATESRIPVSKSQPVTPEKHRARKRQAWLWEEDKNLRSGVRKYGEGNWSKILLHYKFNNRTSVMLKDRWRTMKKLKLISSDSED
UniProt O14746: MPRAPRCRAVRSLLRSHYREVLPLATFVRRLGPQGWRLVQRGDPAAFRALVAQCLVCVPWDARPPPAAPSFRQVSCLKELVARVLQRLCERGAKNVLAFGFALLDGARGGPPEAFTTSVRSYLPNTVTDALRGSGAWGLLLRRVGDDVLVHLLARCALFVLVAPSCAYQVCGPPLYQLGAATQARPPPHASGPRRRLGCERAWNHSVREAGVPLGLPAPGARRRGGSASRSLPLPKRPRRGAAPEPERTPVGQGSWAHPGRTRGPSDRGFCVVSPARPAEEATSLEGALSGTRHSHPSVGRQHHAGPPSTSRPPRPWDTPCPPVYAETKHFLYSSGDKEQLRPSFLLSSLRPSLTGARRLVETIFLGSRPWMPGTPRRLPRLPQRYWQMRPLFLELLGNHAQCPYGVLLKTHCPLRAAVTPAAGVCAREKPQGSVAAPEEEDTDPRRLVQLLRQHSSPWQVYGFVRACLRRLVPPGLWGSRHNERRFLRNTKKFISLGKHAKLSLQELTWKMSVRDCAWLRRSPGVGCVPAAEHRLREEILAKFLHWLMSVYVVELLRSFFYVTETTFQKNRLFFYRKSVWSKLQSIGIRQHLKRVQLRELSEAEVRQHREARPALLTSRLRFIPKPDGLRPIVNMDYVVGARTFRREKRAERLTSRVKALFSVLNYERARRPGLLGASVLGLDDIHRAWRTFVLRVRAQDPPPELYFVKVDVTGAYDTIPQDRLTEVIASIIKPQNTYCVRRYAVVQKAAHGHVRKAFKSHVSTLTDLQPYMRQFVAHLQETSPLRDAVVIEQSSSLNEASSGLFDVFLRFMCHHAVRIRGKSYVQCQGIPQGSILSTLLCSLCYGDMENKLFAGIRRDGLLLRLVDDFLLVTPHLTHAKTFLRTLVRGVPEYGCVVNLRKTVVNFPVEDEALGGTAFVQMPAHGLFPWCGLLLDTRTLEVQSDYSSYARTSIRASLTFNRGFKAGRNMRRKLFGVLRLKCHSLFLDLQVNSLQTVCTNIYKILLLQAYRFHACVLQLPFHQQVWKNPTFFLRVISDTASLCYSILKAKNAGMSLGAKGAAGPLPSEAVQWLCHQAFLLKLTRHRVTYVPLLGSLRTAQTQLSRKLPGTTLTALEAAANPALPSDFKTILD

Legend:
[1] = target: Pin2 (expressed from the Pin2 expression construct in HeLa cells) (human) (UniProt P54274); assay: co-immunoprecipitation from co-transfected HeLa cells, anti-PinX1 IP, anti-Pin2/TRF1 immunoblot
[2] = target: Pin2 (expressed from the Pin2 expression construct in HeLa cells) (human) (UniProt P54274); assay: co-immunoprecipitation from co-transfected HeLa cells, anti-PinX1 IP, anti-Pin2 immunoblot
[3] = target: hTERT (telomerase catalytic subunit, as named without its construct in legends and sentences on FIG. 7A-C) (human) (UniProt O14746); assay: GST pulldown of HA-hTERT, GFP-hTERT or 35S-hTERT
[4] = target: hTERT (telomerase catalytic subunit, as named without its construct in legends and sentences on FIG. 7A-C) (human) (UniProt O14746); assay: GST pulldown (FIG. 7A-C)
[5] = target: GFP-hTERT (human TERT produced in cells as a GFP fusion protein) (human) (UniProt O14746); assay: GST pulldown from cell extracts, immunoblot with anti-GFP
[6] = target: HA-hTERT (human TERT produced in cells as a HA epitope tagged protein) (human) (UniProt O14746); assay: GST pulldown from cell extracts, immunoblot with anti-HA
[7] = target: [35S]-Pin2 (Pin2 synthesized by in vitro transcription and translation) (human) (UniProt P54274); assay: GST pulldown of in vitro translated protein, autoradiography
[8] = target: 35S-hTERT (human TERT synthesized by in vitro transcription and translation) (human) (UniProt O14746); assay: as above
[9] = target: Pin2 isoform of Pin2/TRF1 fused to the GAL4 DNA-binding domain (pAS2 vector, yeast two-hybrid bait) (human); assay: yeast two-hybrid screen, Pin2 bait against a HeLa cDNA library, His and LacZ screening

Measured: binding

B1: PinX1 (endogenous 45 kDa protein of HeLa cells, or expressed from the PinX1 expression construct in HeLa cells) (protein)
chain: MSMLAERRRKQKWAVDPQNTAWSNDDSKFGQRMLEKMGWSKGKGLGAQEQGATDHIKVQVKNNHLGLGATINNEDNWIAHQDDFNQLLAELNTCHGQETTDSSDKKEKKSFSLEEKSKISKNRVHYMKFTKGKDLSSRSKTDLDCIFGKRQSKKTPEGDASPSTPEENETTTTSAFTIQEYFAKPVAALKNKPQVPVPGSDISETQVERKRGKKRNKEATGKDVESYLQPKAKRHTEGKPERAEAQERVAKKKCAPAEKQLRGPCWDQSSKASAQDAGDHVQPPEGRDFTLKPKKRRGKKKLQKPVEIAEDATLEETLVKKKKKKDSK
binds: [1] | [2]

B2: GST-PinX1 (N-terminal GST fusion of full length PinX1) (protein, not shown: a dimerising Fc or GST)
chain: B1 chain
not listed: [1] | [2] | [9]
binds: all other assays above

B3: GST-PinX1-N (GST fusion of the N-terminal 142 amino acid fragment of PinX1) (protein, not shown: a dimerising Fc or GST)
chain: MSMLAERRRKQKWAVDPQNTAWSNDDSKFGQRMLEKMGWSKGKGLGAQEQGATDHIKVQVKNNHLGLGATINNEDNWIAHQDDFNQLLAELNTCHGQETTDSSDKKEKKSFSLEEKSKISKNRVHYMKFTKGKDLSSRSKTD
binds: [3] | [4] | [5] | [6] | [8]

B4: GST-PinX1-C (GST fusion of the C-terminal 74 amino acid fragment of PinX1, the telomerase inhibitory domain TID) (protein, not shown: a dimerising Fc or GST)
chain: CAPAEKQLRGPCWDQSSKASAQDAGDHVQPPEGRDFTLKPKKRRGKKKLQKPVEIAEDATLEETLVKKKKKKDSK
binds: [3] | [4] | [5] | [6] | [8]

B5: Tin2 clone from the HeLa cDNA library fused to the GAL4 activation domain (yeast two-hybrid prey) (protein, UniProt Q9BSI4-2 1-354, looked up, not shown: large carriers)
chain: MATPLVAGPAALRFAAAASWQVVRGRCVEHFPRVLEFLRSLRAVAPGLVRYRHHERLCMGLKAKVVVELILQGRPWAQVLKALNHHFPESGPIVRDPKATKQDLRKILEAQETFYQQVKQLSEAPVDLASKLQELEQEYGEPFLAAMEKLLFEYLCQLEKALPTPQAQQLQDVLSWMQPGVSITSSLAWRQYGVDMGWLLPECSVTDSVNLAEPMEQNPPQQQRLALHNPLPKAKPGTHLPQGPSSRTHPEPLAGRHFNLAPLGRRRVQSQWASTRGGHKERPTVMLFPFRNLGSPTQVISKPESKEEHAIYTADLAMGTRAASTGKSKSPCQTLGGRALKENPVDLPATEQKE
binds: [9]

B6: PinX1 clones from the HeLa cDNA library fused to the GAL4 activation domain (yeast two-hybrid prey) (protein, not shown: large carriers)
chain: B1 chain
binds: [9]
